From paper PMC7819943, “Rice protein-binding microarrays: a tool to detect cis-acting elements near promoter regions in rice”
Some of the results follow.

Amino acid sequences for entries named in this document (tags omitted).
UniProt Q0JBA9, entry or part of it: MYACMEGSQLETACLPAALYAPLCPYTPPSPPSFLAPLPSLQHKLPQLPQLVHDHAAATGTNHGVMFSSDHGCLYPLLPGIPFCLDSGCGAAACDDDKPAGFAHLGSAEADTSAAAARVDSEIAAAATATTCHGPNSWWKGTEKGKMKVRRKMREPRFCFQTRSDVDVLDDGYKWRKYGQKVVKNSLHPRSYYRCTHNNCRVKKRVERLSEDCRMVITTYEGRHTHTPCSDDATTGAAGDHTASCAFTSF

target: OsWRKY34 (Oryza sativa, UniProt Q0JBA9 1-250); experiment: protein-binding microarray (RPBM); PBS, 2% BSA, 51.3 ng/ul salmon testes DNA, 50 uM zinc acetate, 200 nM TF, 25 C, 1 h; high values mean tight binding; conditions: protein: recombinant; tags: N-terminal polyhistidine and DsRed monomer fusion (pET32a); label: CyDye5-dUTP incorporated in the synthesized complementary strand; 3' TTTTT single-stranded linker to array surface; dsDNA, one strand shown
Outline: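 Transcription factors, each fused N-terminally to a polyhistidine tag and DsRed, were expressed in E. coli BL21-CodonPlus and purified on Ni–NTA. A custom Agilent array was made double-stranded by primer extension with Cy5-dUTP and blocked with 2% BSA. It was incubated with 200 nM protein in PBS, 2% BSA, salmon testes DNA and 50 µM zinc acetate at 25 °C for 1 h, then washed. The binding signal is per-feature fluorescence intensity (arbitrary units) read on an Axon 4000B scanner.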

| Sequence | binding signal |
| --- | --- |
| AATATACTCCATCCACACACCACACCATCTCAATATATCACGGAGTCACCTAGTGCAG | 8810 fluorescence intensity (a.u.) |
| CTTGAGCGCGTTTGGTTCCTTGTGTGTCAAGCTTCGATGTCGGAGTCACCTAGTGCAG | 9160 fluorescence intensity (a.u.) |
| ACATTAACTAAATGGTGGAGGGCAGGGGTTCGTCTTTCTTCGGAGTCACCTAGTGCAG | 13600 fluorescence intensity (a.u.) |
| GATTCTGTCTCTACCTGACTGGTCTGACCTCACTCTGCTCCGGAGTCACCTAGTGCAG | 8580 fluorescence intensity (a.u.) |
| GTCCTGTTTCTCTGTGTGGGTGGAAGGCCTCGCCTTTCAACGGAGTCACCTAGTGCAG | 8700 fluorescence intensity (a.u.) |
| GGATTTTCTAACTTTATCGTTATTTGCACACATGAACTATCGGAGTCACCTAGTGCAG | 9170 fluorescence intensity (a.u.) |
| CTTGCATGTGAATTGATTGTACCCATTGGATTTTGTTTTCCGGAGTCACCTAGTGCAG | 11400 fluorescence intensity (a.u.) |
| TTCTTTTGGTTGCTGTGGTTGGTGACGGTTTTTATATTTTCGGAGTCACCTAGTGCAG | 14600 fluorescence intensity (a.u.) |
| TACACACAAACTTTCAACTTTTCCATCACATCGTTTCAATCGGAGTCACCTAGTGCAG | 10600 fluorescence intensity (a.u.) |
| GAATCCGTAGTTCGATCTCAACTTCGCTGTTGTGCTTGTCCGGAGTCACCTAGTGCAG | 9860 fluorescence intensity (a.u.) |
| GCACACCATCGCCCATCAGACCCTGCCGCCGCGGTCTCTTCGGAGTCACCTAGTGCAG | 9710 fluorescence intensity (a.u.) |
| CCTTGTTTCTTGGCCCGGTTCGTCGCCGGTGACGGTGGAACGGAGTCACCTAGTGCAG | 8680 fluorescence intensity (a.u.) |
| TTTTGGCAGCCGTTGGTGTTTCGCAGTCAAGTGCATTGTCCGGAGTCACCTAGTGCAG | 8310 fluorescence intensity (a.u.) |
| AACAGCCCCGAGACGCTGCCTCGCACAACTACCCGCTTTCCGGAGTCACCTAGTGCAG | 8580 fluorescence intensity (a.u.) |
| CATTGGGATGCCTCGCCGCCGCTTCTAGGTCTTCTTCTCGCGGAGTCACCTAGTGCAG | 9620 fluorescence intensity (a.u.) |
| AAATGGGAAGTTTGTTGTGGTTTGGCCGGTTTCTGACGCGCGGAGTCACCTAGTGCAG | 8620 fluorescence intensity (a.u.) |
| CACCAACCCACCACTCCTCGTTCCAATCTCGAATCCTTCGCGGAGTCACCTAGTGCAG | 8440 fluorescence intensity (a.u.) |
| ATACCTCCGTCGATCTTTTGGGCTGATTCCTCCTTCCCCGCGGAGTCACCTAGTGCAG | 8680 fluorescence intensity (a.u.) |
| CATATGCACTAACAAAACCGAGTAGGAGGGTGGGTATTTGCGGAGTCACCTAGTGCAG | 8580 fluorescence intensity (a.u.) |
| TCACTTTGCGCGATATCCTACTGCTAAAACTGCGAAGTCACGGAGTCACCTAGTGCAG | 8950 fluorescence intensity (a.u.) |
| CTTTATTGTTGTTTGTTATCATTTGTGTTCTAGATGAAGTCGGAGTCACCTAGTGCAG | 10900 fluorescence intensity (a.u.) |

| Sequence | binding signal |
| --- | --- |
| CCGCCCTTCTTCGTGCCACCGCCGCCGCCTCTCCGCTTCGCGGAGTCACCTAGTGCAG | 9850 fluorescence intensity (a.u.) |
| ACCCTAGGCCAGTATATGCTCCGAAGATCGTCTCTTTGACCGGAGTCACCTAGTGCAG | 10400 fluorescence intensity (a.u.) |
| AGTCTTTGGTCCACAGCTTCATGCATCCATCATATCGACACGGAGTCACCTAGTGCAG | 8260 fluorescence intensity (a.u.) |
| AGGGGTGGATGCGCGTGGGCTGGTGGTGGTGGTGGGGATGCGGAGTCACCTAGTGCAG | 19100 fluorescence intensity (a.u.) |
| ACCCTAGCCTAGTTTGCCACGACTTGGTCCCACCTGGCAGCGGAGTCACCTAGTGCAG | 10200 fluorescence intensity (a.u.) |
| ATTGGAGGTGGTCTTCGTGCATCTGCTTTATCTACTTCTCCGGAGTCACCTAGTGCAG | 11600 fluorescence intensity (a.u.) |
| CTCCTGACTCCTCCTCGGTTCCTCTTCCTCTCGAGCCCTTCGGAGTCACCTAGTGCAG | 9950 fluorescence intensity (a.u.) |
| CCAGCACATCTAACCCAGTCCCAGTTCATATATATATCACCGGAGTCACCTAGTGCAG | 9820 fluorescence intensity (a.u.) |
| AGACACATTCACTTTCTACACACAGACACATTTGGTTAATCGGAGTCACCTAGTGCAG | 10800 fluorescence intensity (a.u.) |
| TCAAACCTCTATATAGTTTCTCCTCCTGTCCGTCCAAGCACGGAGTCACCTAGTGCAG | 12000 fluorescence intensity (a.u.) |
| CCCTCTCAACCCGAGCCTCGCTCCTCCTCGCGTCGTCGTCCGGAGTCACCTAGTGCAG | 9770 fluorescence intensity (a.u.) |
| AATCAACGACGTCTTGCTGCAGATTTTCTATGTTTTCAGTCGGAGTCACCTAGTGCAG | 10100 fluorescence intensity (a.u.) |
| GGCCGCTGTCTAGCCACTGACATCGTTTTTGCCGCGCCGCCGGAGTCACCTAGTGCAG | 8100 fluorescence intensity (a.u.) |
| GTTGTAGGTTTTTGGTTTTTTTTGTTGTGTGTTCTCCTCTCGGAGTCACCTAGTGCAG | 9640 fluorescence intensity (a.u.) |
| CACCGCCTCTGCTCCCGCGCCGCCGCAGCGGCTCCCTCCTCGGAGTCACCTAGTGCAG | 8230 fluorescence intensity (a.u.) |
| AGATAGTGGTGGTGGTCTGTGCATCGTTGACTTGATCATGCGGAGTCACCTAGTGCAG | 10900 fluorescence intensity (a.u.) |
| ACTTTCTCCGTTTCGTATTATAAGTCCGTTTGATCTTTTTCGGAGTCACCTAGTGCAG | 8580 fluorescence intensity (a.u.) |
| CTTTGCTCCAAGCCTACATTATTCACTTTTGGGCCTGTTCCGGAGTCACCTAGTGCAG | 8900 fluorescence intensity (a.u.) |
| TGATGTGGTGCCTACGTGGCTTGTTTGACTAGGTCTCCGTCGGAGTCACCTAGTGCAG | 12100 fluorescence intensity (a.u.) |
| TTTTTCGCCGCGCTTTCCTCCGCAGGTTCACAATTCCGACCGGAGTCACCTAGTGCAG | 8640 fluorescence intensity (a.u.) |
| ACACCACACTACCCCGCCCCACGCTATAAATACCAGCTCTCGGAGTCACCTAGTGCAG | 8870 fluorescence intensity (a.u.) |

Part of the list above, set out differently:
Sequence	binding signal
CCGCCCTTCTTCGTGCCACCGCCGCCGCCTCTCCGCTTCGCGGAGTCACCTAGTGCAG	9850 fluorescence intensity (a.u.)
ACCCTAGGCCAGTATATGCTCCGAAGATCGTCTCTTTGACCGGAGTCACCTAGTGCAG	10400 fluorescence intensity (a.u.)
AGTCTTTGGTCCACAGCTTCATGCATCCATCATATCGACACGGAGTCACCTAGTGCAG	8260 fluorescence intensity (a.u.)
AGGGGTGGATGCGCGTGGGCTGGTGGTGGTGGTGGGGATGCGGAGTCACCTAGTGCAG	19100 fluorescence intensity (a.u.)
ACCCTAGCCTAGTTTGCCACGACTTGGTCCCACCTGGCAGCGGAGTCACCTAGTGCAG	10200 fluorescence intensity (a.u.)
ATTGGAGGTGGTCTTCGTGCATCTGCTTTATCTACTTCTCCGGAGTCACCTAGTGCAG	11600 fluorescence intensity (a.u.)
CTCCTGACTCCTCCTCGGTTCCTCTTCCTCTCGAGCCCTTCGGAGTCACCTAGTGCAG	9950 fluorescence intensity (a.u.)
CCAGCACATCTAACCCAGTCCCAGTTCATATATATATCACCGGAGTCACCTAGTGCAG	9820 fluorescence intensity (a.u.)
AGACACATTCACTTTCTACACACAGACACATTTGGTTAATCGGAGTCACCTAGTGCAG	10800 fluorescence intensity (a.u.)
TCAAACCTCTATATAGTTTCTCCTCCTGTCCGTCCAAGCACGGAGTCACCTAGTGCAG	12000 fluorescence intensity (a.u.)
CCCTCTCAACCCGAGCCTCGCTCCTCCTCGCGTCGTCGTCCGGAGTCACCTAGTGCAG	9770 fluorescence intensity (a.u.)
